# Test results reported in the supplement of paper PMC8728848.
# The list shows a part of the results.
# B1: Epa19 (Candida glabrata) (protein)
# chain: MGSSHHHHHHSSGLVPRGSHMASSKDPTRFPIGCSPQVLKTQPGLAVKLYSYGHPVPGCSYITYQYPDFPRSGYKKERKLADITGVNGKIDIDLKPNDPCRVLTGHLPSNYNYPDTLTYTNFTMILYGYFQPKVTGYHTFNLEADDLLFMNLGAGNAFDCCKAESTLDNFGNYQSYSLWGSDYAKANITVFLVSGVYYPIRLFYVNRDNNAVIDFSFTTEFDKEKVHDFTSYFFSASDGEQCPGSV
# Assays:
# Assay in all cases: glycan array binding signal (z-score within array); higher = stronger binding
# Conditions in all cases: glycan notation: IUPAC condensed, linker removed
# [1] = target: Fuc(a1-2)Gal(b1-4)GlcNAc(b1-3)Gal(b1-4)GlcNAc(b1-2)Man(a1-3)[Fuc(a1-2)Gal(b1-4)GlcNAc(b1-3)Gal(b1-4)GlcNAc(b1-2)Man(a1-6)]Man(b1-4)GlcNAc(b1-4)GlcNAc
# How it was run: (§1)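 Columns mapping to the same glycan were averaged after glycan names were converted to IUPAC-condensed notation. The data come from 3228 arrays in the Consortium for Functional Glycomics database, limited to those with an available protein sequence. Binding is reported as a within-array Z-score averaged across arrays of one protein sequence and across linkers.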
# [2] = target: Fuc(a1-2)Gal(b1-4)GlcNAc(b1-3)Gal(b1-4)GlcNAc(b1-3)Gal(b1-4)GlcNAc
# How it was run: as §1
# [3] = target: Fuc(a1-2)Gal(b1-4)GlcNAc(b1-3)GalNAc
# How it was run: as §1
# [4] = target: Fuc(a1-2)Gal(b1-4)GlcNAc(b1-3)[Fuc(a1-2)Gal(b1-4)GlcNAc(b1-6)]GalNAc
# How it was run: as §1
# [5] = target: Fuc(a1-2)Gal(b1-4)GlcNAc(b1-3)[Fuc(a1-3)[Gal(b1-4)]GlcNAc(b1-6)]Gal(b1-4)Glc
# How it was run: as §1
# [6] = target: Fuc(a1-2)Gal(b1-4)GlcNAc(b1-6)GalNAc
# How it was run: as §1
# [7] = target: Fuc(a1-2)Gal(b1-4)GlcNAc6S
# How it was run: as §1
# [8] = target: Fuc(a1-2)Gal(b1-4)[Fuc(a1-3)]GlcNAc
# How it was run: as §1
# [9] = target: Fuc(a1-2)Gal(b1-4)[Fuc(a1-3)]GlcNAc(b1-2)Man(a1-3)[Fuc(a1-2)Gal(b1-4)[Fuc(a1-3)]GlcNAc(b1-2)Man(a1-6)]Man(b1-4)GlcNAc(b1-4)[Fuc(a1-6)]GlcNAc
# How it was run: as §1
# [10] = target: Fuc(a1-2)Gal(b1-4)[Fuc(a1-3)]GlcNAc(b1-2)[Fuc(a1-2)Gal(b1-4)[Fuc(a1-3)]GlcNAc(b1-4)]Man(a1-3)[Fuc(a1-2)Gal(b1-4)[Fuc(a1-3)]GlcNAc(b1-2)Man(a1-6)]Man(b1-4)GlcNAc(b1-4)GlcNAc
# How it was run: as §1
# [11] = target: Fuc(a1-2)Gal(b1-4)[Fuc(a1-3)]GlcNAc(b1-3)Gal(b1-4)[Fuc(a1-3)]GlcNAc
# How it was run: as §1
# [12] = target: Fuc(a1-2)Gal(b1-4)[Fuc(a1-3)]GlcNAc(b1-3)Gal(b1-4)[Fuc(a1-3)]GlcNAc(b1-3)Gal(b1-4)[Fuc(a1-3)]GlcNAc
# How it was run: as §1
# [13] = target: Fuc(a1-2)Gal(b1-4)[Fuc(a1-3)]GlcNAc(b1-3)GalNAc
# How it was run: as §1
# [14] = target: Fuc(a1-2)Gal(b1-4)[Fuc(a1-3)]GlcNAc(b1-3)[Neu5Ac(a2-6)Gal(b1-4)GlcNAc(b1-6)]Gal(b1-4)Glc
# How it was run: as §1
# [15] = target: Fuc(a1-2)Gal3S(b1-4)GlcNAc
# How it was run: as §1
# [16] = target: Fuc(a1-2)Gal6S(b1-3)GlcNAc
# How it was run: as §1
# [17] = target: Fuc(a1-2)Gal6S(b1-3)GlcNAc6S
# How it was run: as §1
# Fuc(a1-2)Gal6S(b1-4)Glc = target: Fuc(a1-2)Gal6S(b1-4)Glc
# How it was run: as §1
# [18] = target: Fuc(a1-2)Gal6S(b1-4)Glc6S
# How it was run: as §1
# Fuc(a1-2)[Gal(a1-3)]Gal = target: Fuc(a1-2)[Gal(a1-3)]Gal
# How it was run: as §1
# [19] = target: Fuc(a1-2)[Gal(a1-3)]Gal(b1-3)GalNAc
# How it was run: as §1
# [20] = target: Fuc(a1-2)[Gal(a1-3)]Gal(b1-3)GalNAc(b1-3)Gal(a1-4)Gal(b1-4)Glc
# How it was run: as §1
# [21] = target: Fuc(a1-2)[Gal(a1-3)]Gal(b1-3)GlcNAc
# How it was run: as §1
# [22] = target: Fuc(a1-2)[Gal(a1-3)]Gal(b1-3)GlcNAc(b1-2)Man(a1-3)[Fuc(a1-2)[Gal(a1-3)]Gal(b1-3)GlcNAc(b1-2)Man(a1-6)]Man(b1-4)GlcNAc(b1-4)GlcNAc
# How it was run: as §1
# [23] = target: Fuc(a1-2)[Gal(a1-3)]Gal(b1-3)GlcNAc(b1-2)Man(a1-3)[Fuc(a1-2)[Gal(a1-3)]Gal(b1-3)GlcNAc(b1-2)Man(a1-6)]Man(b1-4)GlcNAc(b1-4)[Fuc(a1-6)]GlcNAc
# How it was run: as §1
# [24] = target: Fuc(a1-2)[Gal(a1-3)]Gal(b1-3)GlcNAc(b1-3)GalNAc
# How it was run: as §1
# [25] = target: Fuc(a1-2)[Gal(a1-3)]Gal(b1-3)GlcNAc(b1-6)GalNAc
# How it was run: as §1
# [26] = target: Fuc(a1-2)[Gal(a1-3)]Gal(b1-4)Glc
# How it was run: as §1
# [27] = target: Fuc(a1-2)[Gal(a1-3)]Gal(b1-4)GlcNAc
# How it was run: as §1
# [28] = target: Fuc(a1-2)[Gal(a1-3)]Gal(b1-4)GlcNAc(b1-2)Man
# How it was run: as §1
binder,measurement,setting,value
B1,glycan array binding signal (z-score),[1],-1.01
same,glycan array binding signal (z-score),[2],-0.05
same,glycan array binding signal (z-score),[3],0.004
same,glycan array binding signal (z-score),[4],-0.055
same,glycan array binding signal (z-score),[5],0.603
same,glycan array binding signal (z-score),[6],1.5
same,glycan array binding signal (z-score),[7],-0.293
same,glycan array binding signal (z-score),[8],-0.107
same,glycan array binding signal (z-score),[9],0.201
same,glycan array binding signal (z-score),[10],1.36
same,glycan array binding signal (z-score),[11],-0.047
same,glycan array binding signal (z-score),[12],-0.669
same,glycan array binding signal (z-score),[13],1
same,glycan array binding signal (z-score),[14],-0.518
same,glycan array binding signal (z-score),[15],-0.533
same,glycan array binding signal (z-score),[16],0.192
same,glycan array binding signal (z-score),[17],0.418
same,glycan array binding signal (z-score),Fuc(a1-2)Gal6S(b1-4)Glc,-0.51
same,glycan array binding signal (z-score),[18],-0.863
same,glycan array binding signal (z-score),Fuc(a1-2)[Gal(a1-3)]Gal,-0.947
same,glycan array binding signal (z-score),[19],-0.056
same,glycan array binding signal (z-score),[20],-0.326
same,glycan array binding signal (z-score),[21],-0.022
same,glycan array binding signal (z-score),[22],1.76
same,glycan array binding signal (z-score),[23],-0.248
same,glycan array binding signal (z-score),[24],-0.09
same,glycan array binding signal (z-score),[25],-0.282
same,glycan array binding signal (z-score),[26],-0.136
same,glycan array binding signal (z-score),[27],-0.677
same,glycan array binding signal (z-score),[28],0.045

# Another view of some results above.
binder	measurement	setting	value
B1	glycan array binding signal (z-score)	[18]	-0.863
same	glycan array binding signal (z-score)	Fuc(a1-2)[Gal(a1-3)]Gal	-0.947
